# The whole screen tested about 400,000 compounds, of which about 13,000 (3.2%) were called active. This list was built around the results that the source calls inconclusive (neither active nor inactive); the mix of calls is not that of the screen. The call rests on the fitted dose curve; in most records, active means well fitted cell-killing curve with a large enough effect; inconclusive means small, poorly fitted or top-dose-only effect, or effect the other way; inactive means flat fitted curve, though single readings scatter. Potencies beside an inconclusive call are fits to weak or partial responses and may not hold up.
# Assay: qHTS assay for MDR1-selective chemotherapeutics: Primary screen using the drug-selected MDR subline cells KB-V1; further: nearly all actives have a fitted effect of over 60% in size
# Details: KB-V1 MDR cells viability, CellTiter-Glo, 72 h; activity change, negative = cytotoxicity: at 46.1 µM (top of the series)
# In short: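 Cells of the MDR subline KB-V1 are plated, dosed with compound at multiple concentrations, and incubated 72 h at 37 degrees C; CellTiter-Glo is then added and luminescence read after 10 min.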
# On the % scale 0 is the no-effect control and ±100 the full control effect; potency means the concentration at half of the fitted maximal effect.
SMILES,Potency,"activity change, negative = cytotoxicity"
CSc1cccc(NC(=O)c2ccc(CN3CCc4ccccc4C3)cc2)c1,"inconclusive: 20.6 µM [cytotoxic, single point]",
CN(C)c1ccc(-c2nc3ccccn3c2/N=C/c2ccc(Br)cc2)cc1,active: 9.2 µM,
COc1ccc(NC(=O)CSc2cc(C)nc3c(-c4ccccc4)cnn23)cc1,,inactive: -1.45%
CCCCC(=O)N(C)c1c(CC)nc2c(OCC(=O)C(C)(C)C)cccn12,,inactive: -0.0051%
COC(=O)c1nnn(-c2cccc(C)c2)c1C(=O)OC,"inconclusive: 1.84 µM [rising, partial curve, poor fit]",
Cc1ccc(NC(=O)C2CCC(CNS(=O)(=O)c3csc(C(N)=O)c3)CC2)cc1Cl (centres undefined),,inactive: 8.15%
COCC(=O)OCC(=O)Nc1ccc(Cl)cc1[N+](=O)[O-],,inactive: 7.68%
COc1ccc(Cl)cc1-n1nnc(-c2nsc(NC(=O)c3ccccc3Cl)n2)c1C,,inactive: 0%
N#Cc1cc(O)c(-n2nnc3ccccc32)cc1C#N,,inactive: -4.52%
CC1=NN(C(=O)c2ccncc2)C(=O)C1N=Nc1ccc2ccccc2c1 (centres undefined),active: 6.51 µM,
C/C(=N\OC(=O)c1ccccc1)c1cc(-c2ccc(Cl)cc2)no1,"inconclusive: 29.1 µM [cytotoxic, single point]",
Cc1ccc(NS(=O)(=O)c2ccc3c(c2)CCCN3C(=O)C2CCC2)c(C)c1,,inactive: -5.13%
O=C(N/N=C1/SCC(=O)N1Cc1ccco1)c1ccccc1F,,inactive: 0.191%
Cc1cc(C)n(-c2ccc(C(=O)Nc3ccc(C)c(S(=O)(=O)N(C)C)c3)cc2)n1,"inconclusive: 25.9 µM [cytotoxic, single point]",
COC(=O)[C@]1(Cc2ccccc2)N[C@H](CN(C)C(=O)c2ccc(C)cc2)[C@@H]2C(=O)N(Cc3ccccc3)C(=O)[C@@H]21,,inactive: -2.52%
Cc1ccc(NC(=O)C(c2ccccc2)N2CCN(CC(=O)NC3CC3)CC2)cc1 (centres undefined),active: 20.6 µM,
O=C(/C=C/N1CCOCC1)c1ccc(-c2ccccc2)cc1,"inconclusive: 32.6 µM [cytotoxic, partial curve, poor fit]",
COc1ccc(C2SCCN2S(=O)(=O)c2ccccc2)cc1 (centres undefined),"inconclusive: 18.4 µM [cytotoxic, single point]",
O=C1/C(=C/c2cccnc2)CCc2c1[nH]c1ccccc21,active: 13 µM,
CCOc1ccccc1NC(=O)CSc1ccc(-c2sc(C)nc2C)nn1,"inconclusive: 5.8 µM [cytotoxic, partial curve, poor fit]",
CCc1nn2c(=O)cc(COC(=O)c3ccco3)nc2s1,"inconclusive: 13 µM [rising, partial curve, poor fit]",
CCSc1nsc(NC(=O)Nc2ccccc2Cl)n1,"inconclusive: 29.1 µM [cytotoxic, single point]",
CCc1nc2ccc(C(=O)N3CCN(S(=O)(=O)CC)CC3)cn2c1N(C)Cc1cccs1,,inactive: 4.43%
O=C(CCN1C(=O)c2ccccc2C1=O)NCc1cccc(Cl)c1,"inconclusive: 25.9 µM [rising, single point]",
O=C(Nc1ccc(S(=O)(=O)Nc2ncccn2)cc1)c1cccc(S(=O)(=O)N2CCCC2)c1,,inactive: 1.78%

# Molecules from the list above with an aryl thioether with sulfur outside any ring, in the order listed:
SMILES,Potency,"activity change, negative = cytotoxicity"
CSc1cccc(NC(=O)c2ccc(CN3CCc4ccccc4C3)cc2)c1,"inconclusive: 20.6 µM [cytotoxic, single point]",
COc1ccc(NC(=O)CSc2cc(C)nc3c(-c4ccccc4)cnn23)cc1,,inactive: -1.45%
CCOc1ccccc1NC(=O)CSc1ccc(-c2sc(C)nc2C)nn1,"inconclusive: 5.8 µM [cytotoxic, partial curve, poor fit]",
CCSc1nsc(NC(=O)Nc2ccccc2Cl)n1,"inconclusive: 29.1 µM [cytotoxic, single point]",

# An excerpt of these results, tab-delimited:
SMILES	Potency	activity change, negative = cytotoxicity
O=C1/C(=C/c2cccnc2)CCc2c1[nH]c1ccccc21	active: 13 µM	
CCOc1ccccc1NC(=O)CSc1ccc(-c2sc(C)nc2C)nn1	inconclusive: 5.8 µM [cytotoxic, partial curve, poor fit]	

# Carrying on.

SMILES,Potency,"activity change, negative = cytotoxicity"
CC1CCC(NC(=O)COc2ccc(C(=O)c3ccccc3)cc2)CC1 (centres undefined),"inconclusive: 25.9 µM [cytotoxic, partial curve, poor fit]",
COc1ccc(CNS(=O)(=O)NCc2ccccc2)cc1,,inactive: -1.36%
COc1ccc(N2CCN(C(=O)c3cc4c(s3)-c3ccccc3OC4)CC2)cc1,"inconclusive: 10.3 µM [rising, partial curve]",
Cc1cc(=O)oc2cc(OCCSCCN3CCCCC3)ccc12,,inactive: -16.2%
Cc1cc(=O)[nH]c(-n2[nH]c3c(c2=O)CCCC3)n1,"inconclusive: 7.31 µM [cytotoxic, partial curve]",
S=c1[nH]ccn1-c1cccc(Cl)c1,"inconclusive: 20.6 µM [rising, partial curve, poor fit]",
Cc1ccc(CNCCC2=CCCCC2)cc1,"inconclusive: 29.1 µM [cytotoxic, single point]",
CC1=C(C)C(c2ccccc2)NC(=S)N1 (centres undefined),,inactive: 8.98%
COc1cc(C(=O)Nc2ccc(S(=O)(=O)Nc3cc(C)on3)cc2)cc(OC)c1OC,"inconclusive: 29.1 µM [rising, single point]",
CCOc1ccc(/C=N/Nc2ccc(Cl)nn2)c(O)c1,"inconclusive: 3.26 µM [cytotoxic, full curve]",
CCCCNC(=O)CCn1nc(-c2ccc(C)cc2)c2ccccc2c1=O,"inconclusive: 29.1 µM [rising, single point]",
Cn1c(=O)[nH]c(=O)c2c1nc(N1CCCCC1)n2C/C=N/NC(=O)c1cc(Br)ccc1O,,inactive: 0%
CSc1ccccc1NC(=O)COc1nsnc1N1CCOCC1,"inconclusive: 16.4 µM [cytotoxic, single point]",
NNC(=S)Nc1ccc(S(=O)(=O)N2CCOCC2)cc1,"inconclusive: 14.6 µM [rising, partial curve, poor fit]",
Cc1ccccc1-c1nc(-c2cccnc2)no1,,inactive: -5.12%
Cc1c(O)c2c(=O)n(-c3ccccc3)c(-c3ccccc3)cc2oc1=O,"inconclusive: 20.6 µM [cytotoxic, single point]",
COc1cccc(N2CCN(C3C4CC5CC(C4)CC3C5)CC2)c1 (centres undefined),"inconclusive: 23.1 µM [cytotoxic, single point]",
O=C1C=C(NCc2ccc3c(c2)OCO3)CC(c2ccccc2)C1 (centres undefined),"inconclusive: 29.1 µM [cytotoxic, single point]",
O=C1CCCC2=C1C1c3ccccc3C(=O)N1c1ccc(C(=O)c3ccccc3)cc1N2 (centres undefined),"inconclusive: 18.4 µM [cytotoxic, single point]",
COc1ccccc1/C=C/C(=O)OCC(=O)NCc1ccco1,,inactive: 0%
Cc1ccc(C(=O)Nc2cccc(C(=O)NC3CCCCC3)c2)cc1,"inconclusive: 1.64 µM [cytotoxic, full curve, poor fit]",
COc1cccc(OCc2nnc(SCC(=O)N3c4ccccc4Sc4ccc(Cl)cc43)o2)c1,"inconclusive: 5.17 µM [cytotoxic, full curve]",
O=C(CCSc1ccc(Cl)c(Cl)c1)NC12CC3CC(CC(C3)C1)C2,"inconclusive: 11.6 µM [cytotoxic, partial curve]",
COc1ccccc1NC(=O)c1ccc(S(=O)(=O)N(C)c2ccccc2OC)cc1,,inactive: -13.4%
COc1cccc(N2CCN(C(=O)c3ccc(CS(=O)c4ccc(C)cc4)o3)CC2)c1 (centres undefined),"inconclusive: 0.517 µM [cytotoxic, full curve]",

SMILES,Potency,"activity change, negative = cytotoxicity"
Cc1cc2nc3c(nc2cc1C)C(O)=C3O,,inactive: 0%
COc1ccc(CCC(C)NCc2cccc(Br)c2)cc1 (centres undefined),"inconclusive: 23.1 µM [cytotoxic, single point]",
Oc1ccc2c(c1)oc1cc(O)ccc12,"inconclusive: 20.6 µM [cytotoxic, single point]",
O=C(N/N=C/c1cccc([N+](=O)[O-])c1O)c1cccs1,"inconclusive: 16.4 µM [cytotoxic, partial curve, poor fit]",
Cc1ccc(C(=O)N/C(=C\c2cccs2)C(=O)NC2CCCCC2)cc1,active: 18.4 µM,
COC(=O)c1ccc(COc2cccnc2[N+](=O)[O-])cc1,,inactive: 21.8%
CCOC(=O)c1c(S(=O)(=O)N2CCCC(C(=O)Nc3cccc(Cl)c3)C2)c(C)n(C)c1C (centres undefined),"inconclusive: 11.6 µM [cytotoxic, partial curve]",
O=S(=O)(Nc1nc2ccccc2nc1Nc1ccc2c(c1)OCCO2)c1cccs1,"inconclusive: 16.4 µM [cytotoxic, single point]",
O=c1c(-c2cc3ccccc3o2)[n+]([O-])c2ccccc2n1OCc1ccccn1,active: 3.66 µM,
O=C(NCc1ccccc1Cl)c1ccc2nc[nH]c2c1,"inconclusive: 18.4 µM [cytotoxic, single point]",
CCOC(=O)c1c(NC(=O)C(Sc2ccccc2)c2ccccc2)sc(C(=O)N(C)C)c1C (centres undefined),active: 2.91 µM,
CCC[C@@H](CNC)NC[C@H](Cc1ccccc1)NCCCCc1ccccc1,"inconclusive: 18.4 µM [cytotoxic, single point]",
N#CC1(NC(=O)COC(=O)C2CCN(S(=O)(=O)c3ccc4c(c3)OCCO4)CC2)CCCCC1,"inconclusive: 20.6 µM [rising, single point]",
CCOC(=O)C1=C(C)NC(C)=C(C(=O)OCCNC(=O)c2cccnc2)C1c1cccc([N+](=O)[O-])c1 (centres undefined),,inactive: -32.9%
NC(=O)c1ccc(NC(=O)COC(=O)CC23CC4CC(CC(Br)(C4)C2)C3)cc1,,inactive: -2.76%
Cc1nc(C)n(CC(O)COc2ccc3ccccc3c2)n1 (centres undefined),active: 20.6 µM,
O=C(COC(=O)/C=C/c1ccc(F)cc1)NCc1ccco1,"inconclusive: 29.1 µM [rising, single point]",
O=C(Nc1ccc(N2CCN(Cc3ccccc3F)CC2)cc1)c1ccc([N+](=O)[O-])o1,active: 14.6 µM,
Cc1cc(C)nc(SCCN2CCCCC2)n1,"inconclusive: 18.4 µM [rising, single point]",
CC(C)COC(=O)N(C)c1ccc(C(O)(C(F)(F)F)C(F)(F)F)cc1,"inconclusive: 25.9 µM [cytotoxic, single point]",
Cc1cn(C2CC(O)C(O)C(CO)O2)c(=O)[nH]c1=O (centres undefined),,inactive: 6.86%
CN(C)c1ccc(N=Nc2ccc(S(=O)(=O)O)cc2)cc1,,inactive: 15.5%
Cc1cccc(C(=O)Nc2nc(C)c(C(=O)Nc3ccc4c(c3)CCC4)s2)c1,"inconclusive: 29.1 µM [cytotoxic, single point]",
O=C1Nc2ccccc2N=C(c2ccccc2)C1N(C(=O)c1ccnc2ccccc12)c1ccccc1 (centres undefined),"inconclusive: 29.1 µM [cytotoxic, single point]",

# Source: PubChem BioAssay AID1347076 (National Center for Advancing Translational Sciences (NCATS), 2019)
